For at least one compound, name, drawing or mass did not settle the structure. Some entries repeat one wording, which the source may state once for all of them.
experiment: Foaming test with the shaking method; assay type: physicochemical; conditions: pH 7
Experimental: 0.5 wt % of each sample in Table 1 was dissolved in ion exchanged water with 70 ppm calcium chloride already dissolved in it. […] This solution was kept at 30° C. put into a Nessler's tube with an inner diameter of 3 cm and a height of 20 cm equipped with a sliding plug, and then tilted 90 degrees every second using a pendulum type shaker. After one minute, the sample was taken out of the shaker and the foam height, the foam film thickness and the foam density were measured. The time required for the foam height to be reduced to a half of the original height was also measured. The foam film thickness was measured by taking a photograph of the foam using a microscope at 100 times magnification and calculating the average value on the photograph. The foam density was obtained by sampling 10 ml of the foam and measuring its weight.
(§1) 0.5 wt % of each sample in Table 6 was dissolved in ion exchanged water with 70 ppm calcium chloride already dissolved in it. […] After one minute, the sample was taken out of the shaker and the foam height, the foam film thickness and the foam density were measured. The time required for the foam height to be reduced to a half of the original height was also measured. The foam film thickness was measured by taking a photograph of the foam using a microscope at 100 times magnification and calculating the average value on the photograph. […]
as §1, with “11” for “6”

Question: For `CCCCCCCCCCCC(=O)N[C@@H](C)C(=O)O.[Na]` [Control sample 1, Sodium lauroylalanine], which “Foaming (in words)” value is on record?
Answer: harder to foam

Question: With `CCCCCCCCCCCC(=O)[O-].[K+]` [Control sample 2, Potassium laurate] as the compound, how does the “Foaming (in words)” value read?
Answer: harder to foam

Question: Which “Foaming (in words)” value does the source give for `CCCCCCCCCCCC(=O)N[C@@H](C)C(=O)O.[K]` [Control sample 2, Potassium lauroylalanine] here?
Answer: harder to foam
